Taken from: PubChem BioAssay AID743454 (Peter MacCallum Cancer Centre, 2014)
The whole screen tested about 18,000 reagents; below is a part drawn at random. 450 of all reagents (2.5%) were called active. 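Single biological run; no consistent viability z cut-off exists, so the class columns, not z-scores, define the calls.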 A number with no mark means an inactive call.

Screen: 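Knock-downs lowering viability or raising caspase 3/7 activity in vorinostat-treated resistant cells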 (primary screen)
Cells: human HCT116-VR colon cancer cells, selected for vorinostat resistance
Knock-down reagent: siRNA pool against human genes, 40 nM siRNA pool
Duration: vorinostat for 24 h, read-out about 72 h after transfection
Treatment: vorinostat at 2.5 µM final
Detection: 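Cell viability by CellTiter-Fluor and caspase 3/7 activity by luminescence, each scaled to mock wells per plate, duplicates averaged, then robust z-scored over all plates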
Scale: viability robust z-score: higher = more viable cells than screen typical; caspase robust z-score: higher = more caspase 3/7 activity than screen typical
Call rule: 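a knock-down is a hit when classed RV1 or RV2 for lowered viability, or CA1 or CA2 for caspase activation; those lethal without drug were dropped; hits were retested singly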

| Target gene | viability hit class | caspase hit class | viability robust z-score | caspase robust z-score |
| --- | --- | --- | --- | --- |
| DVL3 | no change | no change | 0.1 | -0.04 |
| COL4A2 | no change | no change | 1.19 | -0.52 |
| CYP11B1 | no change | no change | -0.06 | 0.4 |
| ZFAND2A | no change | no change | -0.16 | -1 |
| GPN3 | no change | no change | -1.54 | 2.91 |
| TRPC4AP | no change | no change | 1.07 | -0.44 |
| VCY1B | no change | no change | -0.32 | 0.25 |
| MED21 | no change | no change | -2.92 | 2.36 |
| TMEM208 | no change (active) | CA1 (caspase activation) | 0.6 | 5.23 |
| SSUH2 | no change | no change | -0.38 | 1.35 |
| ATP11AUN | no change | no change | 1.34 | 0.22 |
| AKAP4 | no change | no change | 0.93 | -0.02 |
| THSD1 | no change | no change | 0.38 | 0.55 |
| ANKHD1-EIF4EBP3 | no change | no change | -0.01 | 0.15 |
| CIT | no change | no change | -1.03 | 3.28 |
| MTREX | no change | no change | -1.38 | -1.23 |
| MCM2 | no change | no change | 0.08 | -1.04 |
| RNF4 | no change | no change | -0.2 | 1.86 |
| KRT23 | no change | no change | 0.29 | 2.03 |
| INKA2 | no change | no change | -0.81 | 4.5 |
| UBAC2 | no change | no change | 1.44 | 0.34 |
| DCAF17 | no change | no change | -1.55 | 1.45 |
| GLIPR2 | no change | no change | -0.1 | -1.17 |
| NSUN5 | no change | no change | 1.05 | 0.16 |
| PPP1R35 | no change | no change | -0.1 | 1.04 |

Active calls (from the list above):
| Target gene | viability hit class | caspase hit class | viability robust z-score | caspase robust z-score |
| --- | --- | --- | --- | --- |
| TMEM208 | no change (active) | CA1 (caspase activation) | 0.6 | 5.23 |

The list goes on.
| Target gene | viability hit class | caspase hit class | viability robust z-score | caspase robust z-score |
| --- | --- | --- | --- | --- |
| UNC5C | no change | no change | -0.22 | 0.82 |
| HORMAD2 | no change | no change | -0.09 | -1.04 |
| WIPF3 | no change | no change | 0.54 | 0.35 |
| CNGA3 | no change | no change | -0.57 | 1.52 |
| SIRT4 | no change | no change | 1.7 | -0.14 |
| PNLIPRP1 | no change | no change | 0.32 | -0.13 |
| CLEC2L | no change | no change | 1.43 | -0.59 |
| ETAA1 | no change | no change | 0.64 | 0.11 |
| BACE1 | no change | no change | -3.46 | 1.15 |
| SNX27 | no change | no change | -1.48 | 4.05 |
| EIF1AX | RV2 (reduced viability) (active) | no change | -2.91 | 0.47 |
| CTTNBP2NL | no change | no change | 0.47 | 2.24 |
| CNGA4 | no change | no change | -0.63 | 1.54 |
| SUGCT | no change | no change | -1.64 | -0.94 |
| ZC3H10 | no change | no change | -0.34 | 3.38 |
| RUNX2 | RV2 (reduced viability) (active) | no change | -3.66 | 2.54 |
| H6PD | no change | no change | 0.2 | 3.13 |
| PSEN1 | no change | no change | 0.16 | -1.05 |
| CCDC149 | no change | no change | 0.4 | 0.25 |
| A4GNT | no change | no change | 0.36 | -0.53 |
| IRAG2 | no change | no change | 1.15 | -0.75 |
| ECH1 | no change | no change | 1.36 | 0.01 |
| VN1R5 | no change | no change | 0.4 | -0.95 |
| P2RX2 | no change (active) | CA1 (caspase activation) | -0.8 | 5.17 |
| SYNDIG1 | no change | no change | -0.65 | -0.34 |
| DARS2 | no change | no change | 0.2 | -0.7 |
| BCL2L11 | no change | no change | 0.23 | -0.99 |
| BRI3BP | no change | no change | -0.24 | 0.34 |
| LGALS12 | no change | no change | 0.86 | 0.46 |
| MOSPD2 | no change | no change | 0.78 | -0.56 |
| MAP3K5 | no change | no change | 0.1 | -1.11 |
| COQ8A | no change | no change | -0.92 | 1.67 |
